For this experiment, the target named is T1, HA-RAB25 (UniProt P57735).
T1 sequence: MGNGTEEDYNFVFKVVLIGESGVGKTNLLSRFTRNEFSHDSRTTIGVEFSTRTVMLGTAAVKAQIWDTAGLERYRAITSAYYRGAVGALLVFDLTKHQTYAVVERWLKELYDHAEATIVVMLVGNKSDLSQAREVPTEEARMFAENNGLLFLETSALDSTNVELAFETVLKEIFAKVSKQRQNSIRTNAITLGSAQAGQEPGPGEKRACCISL
The experiment is described as follows: co-IP; lysate of HEY HA-RAB25 cells transfected with pcDNA3-His B-FIP1; anti-HA agarose; blot for FIP1; lysate pretreated with DMSO or RFP peptides 1 h at 4 °C.

No constants are given. Whether binding was seen depends on the method and setting. Binding seen in cells or lysates may run through a third protein. A result given as binding can be weak or reduced; the word gives no strength. Sequences can lack the tags named with a protein.

In the case of H6-FIP1, the binding entry is recorded as “binds”.

Values taken from article PMC5610242, “Stapled peptide inhibitors of RAB25 target context-specific phenotypes in cancer” (Nature Communications, 2017).
